According to PubChem BioAssay AID2685 (National Center for Advancing Translational Sciences (NCATS), 2010):
About 2,100 (0.66%) of roughly 320,000 compounds were called active. The inconclusive results got no clear call from the source; some entries with a clear call stand among them for comparison. Calls follow the shape of the dose curve; as a rule, active = well fitted inhibition curve with a large enough effect in the signal ratio, with a control signal flat (not every such curve was filed as active); inconclusive = small, poorly fitted or top-dose-only effect, or effect the other way, or a change in a side signal; inactive = flat fitted curve, though single readings scatter; the % refers to the signal ratio. A potency beside an inconclusive call is a rough fit, not a confirmed value.

Assay: qHTS Assay for Lipid Storage Modulators in Drosophila S3 Cells
Settings: BODIPY lipid droplet fluorescence, 18-24 h, cells fed with added oleic acid; lipid storage change, negative = inhibition: at 46.1 µM (top of the series) unless noted
Outline: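 Laser-scanning cytometry quantifies lipid droplet accumulation (500–530 nm total intensity; droplet/cell object ratio) in oleic acid-fed (400 uM added) Drosophila S3 cells treated with a concentration series. 20 uM Triacsin C defined 100% inhibition.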
% is scaled to controls: 0 for no effect and ±100 for the full control effect; potency is read from the fitted curve at half-maximal effect.

SMILES | lipid storage change, negative = inhibition | Potency | outcome
COC(=O)c1cc(-c2ccc(S(=O)(=O)N3CCCC3)cc2)c(C(F)(F)F)s1 | inconclusive: 10.5% |  | 
COc1ccc(C)cc1N/C(N)=N/c1nc(C)cc(C)n1 | inconclusive: 4.45% |  | 
COc1ccc2c(c1OC)C(=O)OC2Nc1ncccc1C (configuration not stated) | inconclusive: -20.3% |  | 
CC(C)N(Cc1nc(-c2ccc(Cl)cc2)no1)C(=O)/C=C/c1ccccc1 |  | inconclusive: 18.4 µM [activator, single point] | 
CC1Cc2ccccc2N1C(=O)COc1nc2ccccc2nc1N1CCOCC1 (configuration not stated) |  | inconclusive: 3.26 µM [activator, single point] | 
Cn1c(SCC(=O)NCCc2ccccc2)ncc(C(=O)Nc2ccccc2)c1=O | inconclusive: 32.9% |  | 
Cn1c(N)c(C(=O)COC(=O)CCCOc2ccc(Cl)cc2Cl)c(=O)n(C)c1=O | inconclusive: -72.1% |  | 
O=C(N/N=C\c1ccc([N+](=O)[O-])s1)c1cncc(Br)c1 | inconclusive: -73.4% |  | 
O=C(O)c1cc2c(cc1NC(=O)c1ccccc1C(F)(F)F)OCCCO2 | inconclusive: 115% |  | 
CCN(C(=O)CSc1nnc2nc(C)cc(C)n12)c1ccccc1 | inconclusive: 2.56% |  | 
COc1ccc(OC)c(NC(=O)CN(Cc2ccccc2)S(C)(=O)=O)c1 | inconclusive: -20.2% |  | 
CNCC[C@H](Oc1ccc(C(F)(F)F)cc1)c1ccccc1 | inconclusive: 11.5% |  | 
O=C(COc1ccc([N+](=O)[O-])cc1)Nc1ccc2c(c1)CCC2 | inconclusive: 15.6% |  | 
COc1ccc(C(=O)NCCc2nnc(SCc3nc4ccccc4c(=O)[nH]3)n2C)cc1 |  | inconclusive: 6.51 µM [activator, single point] | 
CN1C(=S)NC(C)(C)CC1(C)c1ccc(O)cc1O (configuration not stated) | inconclusive: 219% |  | 
CCOc1ccc(C(C)=O)cc1CSc1nnnn1-c1ccc(O)cc1 | inconclusive: 22.9% |  | 
CC(=O)C1=C(O)C(=O)N(Cc2cccnc2)C1c1ccc(Cl)cc1Cl (configuration not stated) | inconclusive: -10% |  | 
CCCn1nc(NS(=O)(=O)c2cccc3nonc23)c2cc3cccc(C)c3nc21 |  | inconclusive: 29.1 µM [falling, single point] | 
Cc1c(NC(=O)c2cc(-c3ccc(Cl)cc3)on2)c(=O)n(-c2ccccc2)n1C |  | inconclusive: 10.3 µM [activator, partial curve] | 
CCOC(=O)C1=C(O)C(=O)N(Cc2ccccc2)CC1 | inconclusive: -18.4% |  | 
COc1ccc(-c2c3c(=O)n(C)c(=O)n(C)c3cn2Cc2cccnc2)cc1 | inconclusive: 51.2% |  | 
O=C1c2cccnc2C(Nc2cccc(F)c2)N1Cc1ccco1 (configuration not stated) |  | inconclusive: 0.164 µM [falling, full curve] | 
O=c1c2c(ncn2C2CCCC2)n(Cc2ccccc2)c(=O)n1CCOc1ccc(Br)cc1 | inconclusive: 23.3% |  | 
C/C(=N\NC(=O)CN(c1ccccc1)S(=O)(=O)c1ccccc1[N+](=O)[O-])C(C)(C)C | inconclusive: 30.4% |  | 
CS(=O)(=O)c1ccc2nc(NC(=O)Cc3ccccc3)sc2c1 | inconclusive: -22.1% |  | 
CC(=O)N(Cc1cc2c(C)cc(C)cc2[nH]c1=O)C1CCCCC1 | inconclusive: 23.7% |  | 

SMILES | lipid storage change, negative = inhibition | Potency | outcome
CCC(C)N(C(=O)COC(=O)c1[nH]c(C)c(C(C)=O)c1C)C1CCS(=O)(=O)C1 (configuration not stated) | inconclusive: -0.313% |  | 
Cc1c(C(=O)Nc2ccc3c4c(cccc24)CC3)cccc1[N+](=O)[O-] | inconclusive: 17.5% |  | 
O=C(CCCn1c(=O)[nH]c2ccsc2c1=O)N1CCN(c2ccccn2)CC1 | inactive: -23.2% |  | 
Cc1cccc(-n2ncc3c(NCCCO)ncnc32)c1 |  | inconclusive: 0.92 µM [activator, full curve, poor fit] | 
CCCCOc1ccc(C(=O)NCC(=O)NCCCn2nc(C)cc2C)cc1 |  | inconclusive: 0.0206 µM [falling, full curve, poor fit] | 
N#Cc1ccsc1NC(=O)C1CCN(C(=O)c2ccc(F)cc2)CC1 |  | inconclusive: 3.26 µM [activator, single point] | 
Cc1nc2c(-c3ccc(F)cc3)c(C)nn2c(C)c1CCC(=O)NCc1ccco1 |  | inconclusive: 29.1 µM [activator, single point] | 
Cc1ccc(C(=O)Nc2ccc(C(=O)N/N=C/c3c[nH]c4ccccc34)cc2)cc1 | inconclusive: -26.8% |  | 
CCOc1cc(CNc2ccc(N3CCN(C(C)=O)CC3)cc2)cc(Br)c1OC | inconclusive: 0.815% |  | 
Cc1ccccc1Cn1nc(C)c(NC(=O)c2nc3n(n2)C(C(F)F)CC(C)N3)c1C (configuration not stated) |  | inconclusive: 1.64 µM [activator, partial curve] | 
Cc1onc(-c2c(Cl)cccc2Cl)c1C(=O)NCc1ccco1 | inconclusive: 7.35% |  | 
CC(O)CNCc1ccc(-c2ccccc2)cc1 (configuration not stated) | inconclusive: 17.2% |  | 
COc1cccc(CNC(=O)CCC2CCCN(C(=O)Cc3ccccc3F)C2)c1 (configuration not stated) |  | inconclusive: 23.1 µM [falling, single point] | 
O=C(O)c1ccccc1-c1nc(-c2ccccc2)c(-c2ccccc2)[nH]1 | inconclusive: 32.4% [at 9.22 µM] |  | 
O=C(CN1C(=O)CSC1=O)Nc1ccc(N2CCOCC2)cc1 |  | active: 20.6 µM | 
CC1CCN(CCCCOc2ccc(C(C)(C)C)cc2)CC1 | inconclusive: 15.6% |  | 
CC(C)c1ccc(NC2=NCC(=O)N2Cc2cccs2)cc1 |  | inconclusive: 29.1 µM [falling, single point] | 
Cc1[nH]c2ccc(-c3n[nH]c(=S)n3-c3ccccc3)cc2c1C |  | inconclusive: 0.092 µM [activator, full curve] | 
CC1CCN(c2ccccc2NC(=S)NC(=O)C(C)(C)C)CC1 | inconclusive: 45.2% |  | 
O=C(COC(=O)c1ccccc1)NC(=O)NC1CCCC1 | inconclusive |  | 
COc1ccc(/C=C(/CC(=O)Nc2ccc(C)cc2)c2nc3ccccc3s2)cc1 | inconclusive: 29.2% |  | 
Cn1cc(CNC(=O)c2cc(-c3ccc(Br)cc3)nc3ccccc23)cn1 | inconclusive: 0.406% |  | 
Cc1cc(C)c(S(=O)(=O)Nc2ccccc2C(=O)N2CCCC2)c(C)c1 | inconclusive: 2.13% |  | 
C/C(=N\O)c1ccc(Cl)c(Cl)c1 | inconclusive: 29.6% |  | 
COC(=O)c1ccccc1CC1SC(N)=NC1=O (configuration not stated) | inconclusive: 158% |  | 
Cn1cc(Br)c(-c2cccc(N3C(=O)CCCC3=O)c2)n1 | inconclusive: 14% |  | 

Rewritten as a markdown table: entries from further up.

| SMILES | lipid storage change, negative = inhibition | Potency | outcome |
| --- | --- | --- | --- |
| CCCCOc1ccc(C(=O)NCC(=O)NCCCn2nc(C)cc2C)cc1 |  | inconclusive: 0.0206 µM [falling, full curve, poor fit] |  |
| CC(O)CNCc1ccc(-c2ccccc2)cc1 (configuration not stated) | inconclusive: 17.2% |  |  |
| O=C(O)c1ccccc1-c1nc(-c2ccccc2)c(-c2ccccc2)[nH]1 | inconclusive: 32.4% [at 9.22 µM] |  |  |
| CC(C)c1ccc(NC2=NCC(=O)N2Cc2cccs2)cc1 |  | inconclusive: 29.1 µM [falling, single point] |  |
| O=C(COC(=O)c1ccccc1)NC(=O)NC1CCCC1 | inconclusive |  |  |
| Cc1cc(C)c(S(=O)(=O)Nc2ccccc2C(=O)N2CCCC2)c(C)c1 | inconclusive: 2.13% |  |  |
| COC(=O)c1ccccc1CC1SC(N)=NC1=O (configuration not stated) | inconclusive: 158% |  |  |

Later entries.

SMILES | lipid storage change, negative = inhibition | Potency | outcome
O=C(Nc1cccc(O)c1)C1CC(c2ccc(Cl)cc2)=NO1 (configuration not stated) | inconclusive: 74.8% |  | 
COc1ccc(Cl)cc1S(=O)(=O)N1CCC(C(=O)NCC2CCCO2)CC1 (configuration not stated) |  |  | inactive [at 46.1 µM]
O=C(NNC(=O)C1CC(=O)N(c2ccc3c(c2)OCCO3)C1)c1ccc(F)cc1 (configuration not stated) | inconclusive: 34% |  | 
CC1CCCCC1NC(=O)COC(=O)c1ccc([N+](=O)[O-])o1 (configuration not stated) |  | inconclusive: 1.84 µM [falling, partial curve] | 
COc1ccc(Cl)cc1NS(=O)(=O)c1cc(Br)cnc1N | inconclusive: 19% |  | 
CC(C)C1C(=O)CC(c2ccccc2)NC1c1ccccc1 (configuration not stated) | inconclusive: 115% |  | 
COc1ccc(OC)c(N(CC(=O)NCCSC2CCCCC2)S(=O)(=O)c2ccccc2)c1 |  | active: 14.6 µM | 
Cc1cc(C(F)(F)F)nc(SCC(=O)NC2CCCCC2)n1 | inconclusive: -174% |  | 
O=C(O)C1C2C=CC(C2)C1C(=O)NCc1ccccn1 (configuration not stated) |  | inconclusive: 0.092 µM [falling, full curve, poor fit] | 
COc1ccc2nc(Nc3nc(C)c(CCC(C)C)c(=O)[nH]3)nc(C)c2c1 |  | inconclusive: 0.259 µM [activator, full curve] | 
COc1ccc(OC)c(N2CC(O)(c3cccs3)[N+]3=C2SCCC3)c1 (configuration not stated) | inconclusive: -3.29% |  | 
COc1ccc(C(=O)NC2CCCc3c2cnn3-c2cccc(C)c2C)c(OC)n1 (configuration not stated) |  | inconclusive: 1.84 µM [cytotoxic, full curve] | 
O=C(NC(Cc1c[nH]c2ccccc12)C(=O)N/N=C/c1ccc(Cl)cc1)c1cccs1 (configuration not stated) | inconclusive: 75.4% |  | 
O=C(O)c1ccc(NC(=S)N2CCCCC2)cc1 |  | inconclusive: 6.51 µM [falling, single point] | 
Cc1nn(-c2ccccc2)c2sc(-c3n[nH]c(=S)o3)cc12 |  | inconclusive: 8.2 µM [activator, single point] | 
CCCn1nc(NS(=O)(=O)c2cccc3nonc23)c2cc3ccccc3nc21 |  | inconclusive: 29.1 µM [falling, single point] | 
Cc1ccccc1C(=O)N1CCN(c2ccc(NC(=O)c3ccc4c(c3)OCCO4)cc2)CC1 | inconclusive: 32% |  | 
O=C(O)CCC(=O)Nc1cccc(-c2csc(-c3ccccc3)n2)c1 | inconclusive: -30.1% |  | 
COc1ccc(C(=O)Oc2cc(C)[nH]c(=O)c2[N+](=O)[O-])c(OC)c1 | inconclusive: 71% |  | 
CCOc1ccccc1NC(=O)C1C2CCC3C(CCC21)C3(Cl)Cl (configuration not stated) | inconclusive: 19.8% |  | 
COC(=O)C(Cc1ccccc1)NC(=O)CC(C)CC(=O)Nc1ccc(OC)cc1OC (configuration not stated) | inconclusive: -28.7% |  | 
CCN(CC)S(=O)(=O)c1ccc(-c2ccc(S(=O)(=O)N(CC)CC)cc2)cc1 |  | inconclusive: 23.1 µM [activator, partial curve] | 
CCCc1ccc2oc(C(=O)NCCc3cnn(C)c3)c(C)c2c1 | inconclusive: 27% |  | 
COC(=O)c1cc2nc(-c3ccccc3)cc(C)n2n1 |  | inconclusive: 11.6 µM [activator, partial curve] | 
O=C(Cc1csc(Nc2nc(=S)[nH]c3ccccc23)n1)N1CCN(c2cccc(C(F)(F)F)c2)CC1 | inconclusive: 39.1% |  | 
